Results: PubChem BioAssay AID504648 (National Center for Advancing Translational Sciences (NCATS), 2011)
Out of some 390,000 compounds screened, about 610 (0.16%) were called active. This list was built around the results that the source calls inconclusive (neither active nor inactive); the mix of calls is not that of the screen. The call rests on the fitted dose curve; in most records, active means well fitted inhibition curve with a large enough effect; inconclusive means small, poorly fitted or top-dose-only effect, or effect the other way, or another doubt; inactive means no such curve, though single readings can be large or run the other way. Potencies of inconclusive entries are doubtful fits and often do not repeat.
Potency means the concentration at half of the fitted maximal effect.

Test: Nrf2 qHTS screen for inhibitors: counterscreen for cytotoxicity
Details: A549 ARE-Fluc cells, CellTiter-Fluor viability, 18-24 h; series mostly up to 46 µM
Method in brief: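 Cytotoxicity counterscreen: CellTiter-Fluor fluorescence was measured in A549 ARE_Fluc cells after 18-24 h of compound exposure in a concentration series. The subsequent BugLite luminescent read reports ARE-luciferase activity.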
In the case of `CCc1ccccc1NC(=S)N1CCN(c2cccc(OC)c2)CC1`, the Potency was “inactive”. With `COc1cc(C2CC(=O)N(Cc3cccc(F)c3)c3ccccc3S2)cc(OC)c1OC` (stereo not drawn) the Potency was inconclusive: 29.1 µM [falling, single point]. In the case of `CCSc1nc2c(c(=O)[nH]c(=O)n2C)n1Cc1ccc(Cl)cc1`, the Potency was inconclusive: 13 µM [activator, partial curve, poor fit]. For `CCN(C(=O)Cn1c(C(=O)OC)cc2sc(Cl)cc21)c1cccc(C)c1`, the Potency was “inactive”. For `CC(C)c1csc(CN2CCCC(CCC(=O)NCc3ccccc3F)C2)n1` (stereo not drawn), the Potency was “inactive”. In the case of `Cc1cc(Br)ccc1NC(=O)CNC(=O)c1cnn(C)c1`, the Potency was “inactive”. In the case of `CSc1nc(NCCOC(C)=O)c(C#N)c(-c2ccc(C(C)(C)C)cc2)n1`, the Potency was inconclusive: 23.1 µM [falling, partial curve, poor fit]. With `CS(=O)(=O)N1CCN(c2ccc([N+](=O)[O-])c(NCc3ccc(Cl)cc3)c2)CC1` the Potency was inconclusive: 20.6 µM [falling, partial curve, poor fit]. With `Cc1ccc(C(=O)OCC(=O)Nc2ccccc2)cc1NC(=O)c1ccco1` the Potency was “inactive”. With `COc1ccc(C(=O)Nc2cccc(C(=O)OCc3cc(=O)n4nc(C5CC5)sc4n3)c2)cc1` the Potency was “inactive”. In the case of `CC(O)CNc1nc2c(c(=O)n(C)c(=O)n2C)n1C/C=C/c1ccccc1` (stereo not drawn), the Potency was “inactive”. With `Cc1ccccc1N(C(=O)c1snc(C(N)=O)c1N)C(C(=O)NC1CCCCC1)c1ccc(O)cc1` (stereo not drawn) the Potency was inconclusive: 16.4 µM [falling, partial curve, poor fit]. With `C=CCn1c(SCC(=O)Nc2sccc2C(N)=O)nc2ccc(Cl)cc2c1=O` the Potency was inconclusive: 23.1 µM [falling, single point]. In the case of `CCN(CC)CCCNc1nc2ccccc2c2[nH]c3ccc(OC)cc3c12`, the Potency was inconclusive: 25.9 µM [falling, single point]. For `O=C(Nc1cccc(S(=O)(=O)N2CCOCC2)c1)c1cc2ccccc2o1`, the Potency was inconclusive: 20.6 µM [falling, single point]. For `COC(=O)c1ccc2c(c1)C(C)(C)C(/C=C/c1ccc(OC)c(OC)c1OC)=[N+]2C`, the Potency was inconclusive: 23.1 µM [falling, single point]. With `CCCn1ncc(CN2CCC(C(=O)Nc3cccc(-c4cccc(F)c4)c3)CC2)c1C` the Potency was inconclusive: 18.4 µM [falling, partial curve, poor fit]. In the case of `Cc1c(C(=O)Nc2ccccc2Br)oc2ccc(S(=O)(=O)N3CCCCCC3)cc12`, the Potency was “inactive”. In the case of `CC(C)(C)c1ccc(C(=O)Nc2ccc(CC(=O)O)cc2)o1`, the Potency was “inactive”. In the case of `CC1=C(C(=O)N2CCOCC2)C(c2ccc(-c3ccccc3)cc2)NC(=S)N1` (stereo not drawn), the Potency was “inactive”. For `CCn1cnc2sc(-c3ccccc3)cc2c1=O`, the Potency was “inactive”. For `COc1ccccc1NC(=O)c1cc2c(=O)n(C)c3ccccc3c2n1C`, the Potency was “inactive”. With `O=C(N/N=C/c1sc(=O)n(Cc2ccc(Br)cc2)c1Cl)c1ccco1` the Potency was inconclusive: 25.9 µM [falling, single point]. With `COC(=O)c1cc(Nc2nc3ccccc3nc2NS(=O)(=O)c2ccc(C)cc2)ccc1Cl` the Potency was “inactive”. With `Cc1cc(C)n(-c2nc(N(c3ccccc3)c3ccccc3)nc(-n3nc(C)cc3C)n2)n1` the Potency was inconclusive: 8.2 µM [falling, partial curve]. In the case of `Clc1ccc(C2=CC(c3ccco3)n3ncnc3N2)cc1` (stereo not drawn), the Potency was inconclusive: 20.6 µM [activator, partial curve]. For `Cc1cc(C)n(CC(=O)N/N=C/c2ccc([N+](=O)[O-])s2)n1`, the Potency was inconclusive: 0.58 µM [falling, partial curve, poor fit]. With `COc1ccc2[nH]c3c(Cl)ncnc3c2c1` the Potency was “inactive”. For `CCOc1ccc(C2C(C(=O)/C=C/c3ccco3)=C(O)C(=O)N2CCN2CCOCC2)cc1OC` (stereo not drawn), the Potency was inconclusive: 29.1 µM [falling, partial curve, poor fit]. In the case of `Cc1cccc(NC(=O)C2CCN(S(=O)(=O)c3ccc4c(c3)NC(=O)CO4)CC2)c1C`, the Potency was “inactive”. In the case of `COc1cccc(OC)c1-c1nn2c(-c3n[nH]c4c3CCC4)nnc2s1`, the Potency was “inactive”. In the case of `CCOC(=O)c1cnn(-c2nc(-c3cccc(F)c3)cs2)c1C(F)(F)F`, the Potency was “inactive”. With `O=C(CSc1ccccc1)Nc1ccc(S(=O)(=O)NCC2CCCO2)cc1` (stereo not drawn) the Potency was inconclusive: 2.06 µM [activator, partial curve, poor fit]. With `N/C(=N\OS(=O)(=O)c1ccc(Cl)cc1)c1ccccn1` the Potency was inconclusive: 29.1 µM [falling, partial curve, poor fit]. With `Cc1ccc(C(=O)Nc2ccc(N3CCOCC3)c3nonc23)cc1[N+](=O)[O-]` the Potency was inconclusive: 14.6 µM [falling, partial curve, poor fit]. With `CCOC(=O)C(=O)N1CCC(Cc2ccccc2)CC1` the Potency was “inactive”. For `CC1(c2ccc3ccccc3c2)NC(=O)N(CC(=O)N2CCN(Cc3ccccc3)CC2)C1=O` (stereo not drawn), the Potency was inconclusive: 10.3 µM [falling, partial curve, poor fit]. For `CCOC(=O)C1CCN(C(=O)Cn2cc(C(=O)OC)c3ccccc32)CC1`, the Potency was “inactive”. For `CCc1ccc(NC(=O)CC2C(=O)N(c3cccc(C)c3)C(=O)N2Cc2cccc(OC)c2)cc1` (stereo not drawn), the Potency was inconclusive: 32.6 µM [falling, partial curve, poor fit]. For `Cc1ccc(S(=O)(=O)N2CCCCC2CCNC(=O)C(=O)NCc2ccccc2)cc1` (stereo not drawn), the Potency was inconclusive: 2.06 µM [falling, partial curve, poor fit]. With `C[C@H](CO)N1C[C@H](C)[C@@H](CN(C)C(=O)Nc2ccccc2)Oc2ccc(NC(=O)Nc3ccc(C(F)(F)F)cc3)cc2C1=O` the Potency was inconclusive: 32.6 µM [falling, partial curve, poor fit]. With `COc1ccc(N=Cc2nc(-c3ccccc3)oc2OC(C)=O)cc1` the Potency was inconclusive: 4.11 µM [falling, partial curve, poor fit]. In the case of `COCCCNC(=O)Cc1c(C)c2c(cc(C)c3c(C(C)(C)C)coc32)oc1=O`, the Potency was inconclusive: 7.31 µM [falling, partial curve, poor fit].
